Laboratory results published in the supplement of paper PMC3334620.
In all, about 33,000 sequences were measured (“E-score (-0.5 to 0.5)”: median about -0.016, highest 2% from about 0.3 on). This is one part of the list.

biological target: T1, Yer184c (UniProt P39961); test: PBM E-score (8-mer binding enrichment) (E-score (-0.5 to 0.5)); higher = stronger / more preferred TF binding; details: protein concentration: 100 nM; construct: GST-full length
T1 sequence: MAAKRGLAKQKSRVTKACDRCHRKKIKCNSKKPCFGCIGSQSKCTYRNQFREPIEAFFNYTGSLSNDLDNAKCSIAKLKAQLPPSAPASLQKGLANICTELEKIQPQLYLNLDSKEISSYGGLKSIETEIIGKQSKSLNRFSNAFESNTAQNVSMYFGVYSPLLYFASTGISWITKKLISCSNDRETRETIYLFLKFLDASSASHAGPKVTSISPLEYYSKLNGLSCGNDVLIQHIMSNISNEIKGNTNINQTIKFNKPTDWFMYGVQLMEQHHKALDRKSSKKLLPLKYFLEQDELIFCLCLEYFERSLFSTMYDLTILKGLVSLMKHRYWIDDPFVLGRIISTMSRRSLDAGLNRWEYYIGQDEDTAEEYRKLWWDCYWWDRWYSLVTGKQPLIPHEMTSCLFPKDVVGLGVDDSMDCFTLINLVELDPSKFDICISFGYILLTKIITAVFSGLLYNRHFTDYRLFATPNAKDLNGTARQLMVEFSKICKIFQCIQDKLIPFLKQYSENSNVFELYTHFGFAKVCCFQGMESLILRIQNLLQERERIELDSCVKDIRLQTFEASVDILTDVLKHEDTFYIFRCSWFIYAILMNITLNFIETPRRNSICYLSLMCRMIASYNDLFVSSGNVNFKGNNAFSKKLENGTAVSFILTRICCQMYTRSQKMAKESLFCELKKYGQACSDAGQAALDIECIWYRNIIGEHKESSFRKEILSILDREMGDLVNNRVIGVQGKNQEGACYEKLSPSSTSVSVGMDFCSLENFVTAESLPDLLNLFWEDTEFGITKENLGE
Outline: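 PURExpress in vitro transcription/translation supplied GST-tagged yeast transcription factors, either full-length or DNA-binding domain. Applied at about 100-200 nM to universal all-10-mer Agilent arrays double-stranded by primer extension, the bound protein was detected with fluorescent anti-GST. E-scores, modified Wilcoxon-Mann-Whitney statistics, were given by the Universal PBM Analysis Suite to ungapped eight-base words pooled with their reverse complements after masliner normalisation.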

| Sequence | PBM E-score |
| --- | --- |
| CACCCTAC | -0.162 |
| CGTGATCC | -0.0695 |
| CTGAGCTC | 0.00987 |
| CGGGGAGA | -0.186 |
| CCCTAAAG | -0.206 |
| ATACGTGG | -0.08 |
| CGTAGAAG | -0.0183 |
| GGTTTGAC | 0.0318 |
| TAAATCCA | 0.00272 |
| CTTCATTC | -0.172 |
| ATATCTGG | 0.00195 |
| ACTACGAC | 0.0171 |
| CTCCGCAG | -0.136 |
| CGCAAAAG | 0.0528 |
| TATTGCAA | 0.24 |
| CGTACCTA | -0.219 |
| GGAAGCAC | 0.124 |
| AGGGGAAT | 0.0617 |
| CGACTCAC | -0.11 |
| CATATCCC | 0.0121 |
| CTAGAGAA | 0.00696 |
| CTTAGAGA | -0.0897 |
| AACCTCAG | -0.114 |
| TACCAGGA | 0.0761 |
| AAGCAAGG | 0.0654 |

| Sequence | PBM E-score |
| --- | --- |
| ATGTAGCA | -0.101 |
| TAAAGTCA | 0.0728 |
| CAAAAGAC | -0.0595 |
| ACTATATG | 0.0113 |
| TTAGTGAA | -0.022 |
| CAAGGCCC | -0.134 |
| AGAATCGG | 0.204 |
| GAGGATGC | -0.0836 |
| GATGCCCA | 0.124 |
| CAGAGCAC | -0.132 |
| GGGGGCAC | -0.328 |
| GATCTGGC | -0.0225 |
| ATCGGTGG | -0.109 |
| ATCCGATG | 0.327 |
| ATTCACAA | 0.109 |
| ACTAAAGG | -0.019 |
| CCCCTTCC | -0.233 |
| CGCACGCG | -0.181 |
| GAATGGGC | -0.155 |
| CCTAATCC | -0.089 |
| AATAAATC | 0.0601 |
| GATAAGGC | -0.0618 |
| AAAAGGCG | -0.119 |
| GAGTTGAA | -0.066 |
| GTCCCCTA | -0.298 |

| Sequence | PBM E-score |
| --- | --- |
| CATACGAA | 0.0676 |
| CTTCCCGC | 0.0247 |
| AGTGAACT | 0.0211 |
| AGGGCCCA | -0.175 |
| ACCCATCA | -0.11 |
| AACTGGCT | -0.223 |
| CGAAGGCC | 0.0172 |
| AGAGCGGG | -0.162 |
| GGCTTGGA | -0.409 |
| CCGATGCG | 0.0553 |
| CGGTACGA | 0.0182 |
| ACCCATTA | -0.126 |
| GCGTATCC | -0.0812 |
| AAGGGGCT | -0.132 |
| CAAGTGTG | 0.00548 |
| GTGCTTGA | 0.00946 |
| CCCACGCG | -0.252 |
| CGAACACG | 0.172 |
| GGCGGACA | 0.0704 |
| AATTGCCG | 0.27 |
| ACTCCCCG | 0.186 |
| GCCAGTTA | -0.0285 |
| AGTCGTAT | -0.13 |
| CGACCCTA | -0.121 |
| CTTAAATA | 0.0274 |

| Sequence | PBM E-score |
| --- | --- |
| GGTGACCA | -0.187 |
| AGGTAGCA | -0.299 |
| CTAATTAC | 0.112 |
| GGTAATAA | 0.216 |
| AGCAATAT | 0.0231 |
| AGAGTCAA | -0.151 |
| CGAAGCCG | 0.192 |
| ACATGCTA | -0.0879 |
| CATGGGAA | 0.0355 |
| CTTGTGGA | -0.134 |
| ATGTACGG | -0.0106 |
| CGCGTTTA | -0.00291 |
| AAGGAGAC | -0.147 |
| CGAAGTCG | 0.194 |
| ACCATAGG | -0.267 |
| GAGTTAGA | -0.0539 |
| AATAAAAA | 0.196 |
| GATGGTAA | 0.0112 |
| CGACGTCG | -0.184 |
| GACAGAGA | 0.0101 |
| AGTTGGCG | -0.0302 |
| GATTATCA | 0.148 |
| ATACTGTA | 0.102 |
| CATTTGCC | -0.153 |
| ACAACCGG | 0.282 |

| Sequence | PBM E-score |
| --- | --- |
| GACGTCTA | -0.233 |
| TTCTGAAA | 0.0488 |
| CGAGTACC | 0.0177 |
| AGGCGCAC | -0.0347 |
| CACTTCAA | 0.12 |
| AATGATAC | 0.211 |
| AGAAGGGA | -0.426 |
| GGAGGTTA | -0.1 |
| GGAAGGGA | -0.0945 |
| ACGGCCGC | 0.244 |
| AAACAACT | 0.13 |
| AAATTAGC | 0.137 |
| CGGTCAGC | -0.0378 |
| CACCTCCC | -0.324 |
| AAAGAGGA | -0.0862 |
| GCCGAGCA | 0.186 |
| GTATATCA | 0.244 |
| GGAGACCA | -0.0708 |
| CTGCGTGC | -0.0611 |
| CCCTGCTC | -0.177 |
| CTCTAGGC | -0.154 |
| CCGGACGG | 0.295 |
| CACTGATC | -0.102 |
| CGCCCTTA | -0.179 |
| CCTGAAAC | 0.15 |

| Sequence | PBM E-score |
| --- | --- |
| AGGGTGAA | -0.136 |
| CATATTCA | 0.155 |
| CGGCATGA | 0.313 |
| CTTTACCC | 0.00954 |
| CAAGCCCA | -0.326 |
| CAATCGAA | 0.1 |
| GTTTCTCA | -0.0303 |
| TAGAGGCA | -0.265 |
| AAGCTGGA | -0.088 |
| CACCATCA | -0.245 |
| AACTGGTG | -0.216 |
| AGATACGG | 0.22 |
| TAAAGGGA | -0.0443 |
| AAGTCCGA | 0.182 |
| GATATAGC | -0.0522 |
| AAGAGCCA | 0.00995 |
| GACACATC | -0.0377 |
| CCTTTTAA | 0.0614 |
| CTGCGATA | -0.0577 |
| ATCCAATG | -0.147 |
| CTCATGGA | -0.035 |
| GGGATGTA | -0.131 |
| AAGAGACC | 0.114 |
| GTATTGAC | -0.22 |
| ACGACCGA | 0.0332 |

Looked up one by one from the list above, 4 records:

| Sequence | PBM E-score |
| --- | --- |
| ATCCAATG | -0.147 |
| AAGTCCGA | 0.182 |
| AAGAGCCA | 0.00995 |
| GACACATC | -0.0377 |

Following part

| Sequence | PBM E-score |
| --- | --- |
| GGGGAAAC | -0.0565 |
| GACACTCC | 0.0939 |
| CCAGGAGC | -0.233 |
| TCATGAGA | 0.031 |
| CAAAGGAG | -0.122 |
| CATGACGA | -0.0421 |
| GACGGCCA | -0.117 |
| ATAAAGAG | -0.174 |
| AAACGTGT | 0.0448 |
| CACTGATG | -0.095 |
| GCGCCGTA | 0.247 |
| CAAGCCGC | -0.0146 |
| CCCTGCCC | -0.297 |
| ATTGCATG | 0.126 |
| GCTTTGTA | 0.157 |
| AGTAAATG | 0.146 |
| AACGATCC | -0.0945 |
| ACTTTGAG | 0.0272 |
| ACGGTACA | -0.0253 |
| AAGGGGGT | -0.39 |
| AATGGTCG | -0.0457 |
| ATCCCGTC | -0.0516 |

Some of the entries above, reformatted:
Sequence | PBM E-score
ATAAAGAG | -0.174
ATTGCATG | 0.126
